These are yes or no findings as the source states them, for the method shown. Some entries that bind do so weakly or less than the wild type.
Molecular target: T1, integrin αL chain (UniProt P20701)
T1 sequence: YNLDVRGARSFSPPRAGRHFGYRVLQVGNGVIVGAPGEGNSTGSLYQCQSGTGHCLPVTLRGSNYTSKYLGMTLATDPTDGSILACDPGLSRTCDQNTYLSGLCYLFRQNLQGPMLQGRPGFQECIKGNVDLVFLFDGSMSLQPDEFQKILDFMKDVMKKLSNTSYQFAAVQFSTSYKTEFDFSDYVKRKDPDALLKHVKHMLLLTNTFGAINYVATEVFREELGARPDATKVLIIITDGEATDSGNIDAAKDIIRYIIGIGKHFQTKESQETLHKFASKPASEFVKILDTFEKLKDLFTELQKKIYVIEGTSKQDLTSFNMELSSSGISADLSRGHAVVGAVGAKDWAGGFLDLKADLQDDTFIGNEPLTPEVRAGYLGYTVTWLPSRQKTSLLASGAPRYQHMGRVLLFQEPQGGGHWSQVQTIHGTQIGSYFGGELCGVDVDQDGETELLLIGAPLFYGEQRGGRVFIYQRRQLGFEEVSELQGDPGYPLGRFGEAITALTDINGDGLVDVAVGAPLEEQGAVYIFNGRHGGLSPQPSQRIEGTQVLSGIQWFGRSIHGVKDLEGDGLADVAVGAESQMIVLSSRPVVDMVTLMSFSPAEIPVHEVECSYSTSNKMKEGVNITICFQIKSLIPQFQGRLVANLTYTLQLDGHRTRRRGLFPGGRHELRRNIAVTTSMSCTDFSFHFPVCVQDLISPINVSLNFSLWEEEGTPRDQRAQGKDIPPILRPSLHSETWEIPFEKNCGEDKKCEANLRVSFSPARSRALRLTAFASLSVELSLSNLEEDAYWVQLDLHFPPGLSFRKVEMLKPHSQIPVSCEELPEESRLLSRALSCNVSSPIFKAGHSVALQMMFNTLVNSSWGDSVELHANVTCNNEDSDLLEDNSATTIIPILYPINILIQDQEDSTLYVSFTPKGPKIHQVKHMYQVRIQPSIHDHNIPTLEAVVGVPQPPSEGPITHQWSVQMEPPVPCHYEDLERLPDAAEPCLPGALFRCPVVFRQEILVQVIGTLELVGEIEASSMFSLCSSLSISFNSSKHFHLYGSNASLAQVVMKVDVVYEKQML
Assay: SPR; Biacore 3000, 25°C; integrin αL amine-coupled to CM5 (~500 RU), soluble VWF or VWF-A2 flowed over at 30 μL/min in TBSTG (25 mM Tris pH 7.5, 150 mM NaCl, 0.05% Tween, 2% glycerol); apparent; both purified

Protein sequences, listed by entry. Tags and fused reporters are not part of them. Residues count along the entry.
UniProt P04275, residues 764-2813: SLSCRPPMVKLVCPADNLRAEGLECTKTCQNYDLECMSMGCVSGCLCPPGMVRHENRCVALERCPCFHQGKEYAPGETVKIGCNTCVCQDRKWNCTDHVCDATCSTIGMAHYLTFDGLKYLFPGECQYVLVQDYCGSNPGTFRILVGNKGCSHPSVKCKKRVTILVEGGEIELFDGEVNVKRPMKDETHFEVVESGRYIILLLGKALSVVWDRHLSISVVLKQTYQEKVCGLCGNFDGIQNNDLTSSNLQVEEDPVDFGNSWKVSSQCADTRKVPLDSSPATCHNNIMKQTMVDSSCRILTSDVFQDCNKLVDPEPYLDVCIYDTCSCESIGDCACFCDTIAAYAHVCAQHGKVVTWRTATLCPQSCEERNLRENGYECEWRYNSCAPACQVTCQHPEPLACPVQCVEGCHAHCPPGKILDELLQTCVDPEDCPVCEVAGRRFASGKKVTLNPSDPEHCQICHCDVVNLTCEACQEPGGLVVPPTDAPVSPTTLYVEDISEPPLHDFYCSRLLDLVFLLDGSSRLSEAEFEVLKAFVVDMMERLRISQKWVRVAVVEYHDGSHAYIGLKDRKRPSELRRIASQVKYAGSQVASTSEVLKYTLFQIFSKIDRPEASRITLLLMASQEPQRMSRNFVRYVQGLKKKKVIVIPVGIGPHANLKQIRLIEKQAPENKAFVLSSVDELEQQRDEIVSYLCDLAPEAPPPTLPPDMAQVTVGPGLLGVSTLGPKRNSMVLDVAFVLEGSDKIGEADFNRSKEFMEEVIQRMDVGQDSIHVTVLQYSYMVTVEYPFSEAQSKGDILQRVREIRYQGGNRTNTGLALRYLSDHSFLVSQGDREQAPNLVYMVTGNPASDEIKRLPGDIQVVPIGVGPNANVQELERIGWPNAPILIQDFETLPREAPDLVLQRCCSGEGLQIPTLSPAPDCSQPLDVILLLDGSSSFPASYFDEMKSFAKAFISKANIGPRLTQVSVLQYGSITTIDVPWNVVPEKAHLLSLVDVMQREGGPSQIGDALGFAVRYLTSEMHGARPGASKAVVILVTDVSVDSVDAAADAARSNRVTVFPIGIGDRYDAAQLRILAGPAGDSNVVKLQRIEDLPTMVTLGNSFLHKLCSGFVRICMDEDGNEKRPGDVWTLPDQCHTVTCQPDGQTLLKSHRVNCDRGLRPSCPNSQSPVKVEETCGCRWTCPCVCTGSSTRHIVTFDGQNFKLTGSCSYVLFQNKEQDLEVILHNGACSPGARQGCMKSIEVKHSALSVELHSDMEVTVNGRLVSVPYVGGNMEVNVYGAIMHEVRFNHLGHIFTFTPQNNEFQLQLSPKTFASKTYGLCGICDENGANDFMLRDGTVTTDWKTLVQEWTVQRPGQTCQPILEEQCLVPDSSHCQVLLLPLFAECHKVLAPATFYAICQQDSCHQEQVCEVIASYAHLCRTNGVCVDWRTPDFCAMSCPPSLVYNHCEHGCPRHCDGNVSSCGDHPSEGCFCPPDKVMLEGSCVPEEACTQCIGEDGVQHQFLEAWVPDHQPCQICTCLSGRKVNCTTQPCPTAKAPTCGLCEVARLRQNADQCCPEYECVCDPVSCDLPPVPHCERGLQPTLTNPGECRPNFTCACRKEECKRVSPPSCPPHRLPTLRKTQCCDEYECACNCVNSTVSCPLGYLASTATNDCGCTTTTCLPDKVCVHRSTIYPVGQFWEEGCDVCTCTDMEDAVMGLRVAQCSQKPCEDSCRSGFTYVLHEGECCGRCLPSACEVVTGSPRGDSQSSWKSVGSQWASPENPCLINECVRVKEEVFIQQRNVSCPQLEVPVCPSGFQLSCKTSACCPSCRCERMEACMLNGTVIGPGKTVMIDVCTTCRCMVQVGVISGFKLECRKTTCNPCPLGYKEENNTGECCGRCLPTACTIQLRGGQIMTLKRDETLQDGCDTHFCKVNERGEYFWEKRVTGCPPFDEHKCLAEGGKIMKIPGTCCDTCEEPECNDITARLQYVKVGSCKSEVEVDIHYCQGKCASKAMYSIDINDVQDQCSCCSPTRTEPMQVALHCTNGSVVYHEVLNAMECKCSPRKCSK

For “factor VIII‐free Von Willebrand factor (from UniProt P04275 764-2813)”, which binding is on record?
Its binding is “binds”.

Source: article PMC11222974
